Results are given in words; binding and its absence hold for the method and conditions named. Binding seen in cells or lysates may run through a third protein. These calls come from enrichment with a bait or labelling near it, and not all partners need be listed. Tags and fused reporters may be left off the sequences shown.
Experiments:
[1] = target: T1, MeeF-FLAG (B. subtilis) (UniProt O34447); assay: affinity purification with mass spectrometry; anti-FLAG M2 magnetic beads on lysates (1% Triton X-100) of B. subtilis grown overnight in LB with 50 uM Mn; 30 °C for 3 h; washed with 1X PBS; eluted by heating at 95 °C in 2X Laemmli sample buffer; LC-MS/MS; membrane proteins found in the sample but not in the untagged WT controls
T1 sequence: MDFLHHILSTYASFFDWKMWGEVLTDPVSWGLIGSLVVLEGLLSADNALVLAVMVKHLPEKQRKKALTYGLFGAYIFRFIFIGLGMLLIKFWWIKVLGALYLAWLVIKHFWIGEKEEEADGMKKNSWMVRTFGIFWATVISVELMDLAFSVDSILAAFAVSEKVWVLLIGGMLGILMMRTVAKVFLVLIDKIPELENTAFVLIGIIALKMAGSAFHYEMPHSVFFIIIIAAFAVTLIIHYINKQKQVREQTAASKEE

[2] = target: T2, MeeY-FLAG (B. subtilis) (UniProt O34997); assay: as above
T2 sequence: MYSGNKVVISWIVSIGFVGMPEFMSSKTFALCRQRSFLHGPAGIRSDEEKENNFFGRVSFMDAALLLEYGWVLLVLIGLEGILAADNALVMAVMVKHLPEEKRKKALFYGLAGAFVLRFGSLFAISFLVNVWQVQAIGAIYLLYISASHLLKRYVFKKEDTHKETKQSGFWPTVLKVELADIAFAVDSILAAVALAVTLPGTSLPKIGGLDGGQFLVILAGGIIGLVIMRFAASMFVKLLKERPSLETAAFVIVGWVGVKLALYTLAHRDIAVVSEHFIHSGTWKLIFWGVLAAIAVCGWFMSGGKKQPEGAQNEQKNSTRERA

[3] = target: T2, MeeY-FLAG (B. subtilis); assay: affinity purification with mass spectrometry; anti-FLAG M2 magnetic beads on lysates (1% Triton X-100) of B. subtilis grown overnight in LB with 50 uM Mn; 30 °C for 3 h; washed with 1X PBS; eluted by glycine (pH 3.0) for 30 min; LC-MS/MS; membrane proteins found in the sample but not in the untagged WT controls

binding [1]	binding [2]	binding [3]	Substance
binds	binds	–	AtpG (from UniProt P37810 1-287)
binds	–	–	FrlO (B. subtilis (endogenous in B. subtilis))
binds	binds	–	FtsH (from UniProt P37476 1-637)
–	–	binds	AtpD (from UniProt P37809 1-473)
binds	–	–	MalA (from UniProt P54716 1-449)
binds	–	–	SsdC (B. subtilis (endogenous in B. subtilis))
binds	binds	binds	AtpA (from UniProt P37808 1-502)
